No constants are given. Whether binding was seen depends on the method and setting. In cells and extracts the contact can be indirect. Binding calls can cover weak binding; strength is not graded here. Sequences can lack the tags named with a protein.
Target: T1, Arabidopsis thaliana LONESOME HIGHWAY (AtLHW), BiFC fusion (Arabidopsis thaliana) (UniProt Q9XIN0)
T1 sequence: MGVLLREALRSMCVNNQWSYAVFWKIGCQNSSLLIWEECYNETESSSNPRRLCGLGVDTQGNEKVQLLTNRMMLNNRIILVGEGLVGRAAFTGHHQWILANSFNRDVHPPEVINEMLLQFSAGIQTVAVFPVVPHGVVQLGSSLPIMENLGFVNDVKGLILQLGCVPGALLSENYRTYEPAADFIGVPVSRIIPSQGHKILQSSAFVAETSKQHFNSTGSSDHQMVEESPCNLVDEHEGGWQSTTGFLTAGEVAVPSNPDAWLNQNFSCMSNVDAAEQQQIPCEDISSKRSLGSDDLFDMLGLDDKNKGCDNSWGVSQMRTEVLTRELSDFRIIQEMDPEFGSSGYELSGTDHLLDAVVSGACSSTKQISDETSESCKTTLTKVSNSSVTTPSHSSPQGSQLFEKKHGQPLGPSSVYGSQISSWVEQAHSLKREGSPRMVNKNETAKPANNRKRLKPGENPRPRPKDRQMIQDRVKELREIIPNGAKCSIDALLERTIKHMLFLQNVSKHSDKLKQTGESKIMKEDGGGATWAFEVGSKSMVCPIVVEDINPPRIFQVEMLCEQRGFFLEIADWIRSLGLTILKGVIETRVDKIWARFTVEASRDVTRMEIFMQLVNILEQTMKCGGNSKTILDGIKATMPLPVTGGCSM
Experiment: split reporter

In the case of “Klebsormidium nitens TMO5 ortholog (KnTMO5), BiFC fusion”, the binding is reported as “binds”.
